Measured values as given in the supplement of paper PMC12009310.
Counter-ions that a name gives are not always drawn. ± gives the standard deviation of the averaged measurements. This is one part of the list. Baselines shift from plate to plate; read single values as rough.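 The cells are a mouse kidney inner medullary collecting duct line, silenced either for the ciliary gene Rpgrip1l or with a non-targeting control siRNA.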

Experiments:
mIMCD3 [1] = assay: robust z score of cell number vs plate controls; higher = more cells (less cytotoxic); conditions: 10 µM, 48 h
mIMCD3 [2] = assay: robust z score of cilia incidence (% cells with single cilium) vs plate controls; higher = more ciliated cells; conditions: 10 µM; 48 h; siRNA: siScr
mIMCD3 [3] = assay: robust z score of cilia incidence (% cells with single cilium) vs plate controls; higher = more ciliated cells (rescue of cilia loss); conditions: 10 µM; 48 h; siRNA: siRpgrip1l

Row | SMILES | robust z score of cell number (mIMCD3 [1]; siRNA: siRpgrip1l) | robust z score of cell number (mIMCD3 [1]; siRNA: siScr) | robust z score of cilia incidence (mIMCD3 [2]) | robust z score of cilia incidence (mIMCD3 [3])
1 | COC(=O)[C@H]1[C@H]2C[C@H]3c4[nH]c5ccccc5c4CCN3C[C@H]2CC[C@@H]1O [Rauwolscine hydrochloride] | -3.95 ± 0.7 | -3.05 ± 5.3 | -2.3 ± 6.3 | -6.55 ± 1.9
2 | CN(Cc1cnc2nc(N)nc(N)c2n1)c1ccc(C(=O)N[C@@H](CCC(=O)O)C(=O)O)cc1 [Methotrexate] | -42.5 ± 36 | -34.6 ± 3 | -8.19 ± 3.7 | -12.4 ± 1.3
3 | Cc1cccc(C)c1OCC(C)N (configuration not stated) [Mexiletine hydrochloride] | -3.12 ± 3.2 | -23.1 ± 25 | -3.18 ± 5.8 | -12.4 ± 4.8
4 | COc1cc(Br)c(S(=O)(=O)Nc2ccc(Cl)c(O[C@@H]3CCN(C)C3)c2)cc1OC | -17.4 ± 17 | -8.7 ± 5 | -14.5 ± 2.6 | -14.8 ± 4.3
5 | CCCCC[C@H](O)/C=C/[C@H]1[C@H](O)CC(=O)[C@@H]1C/C=C\CCCC(=O)O [Prostaglandin E2] | -9.63 ± 5.3 | -4.45 ± 3.7 | -1.2 ± 0.25 | -11.5 ± 7
6 | COc1cc(COc2cc(N)c(Cl)cc2C(=O)CCC2CCN(CCNS(C)(=O)=O)CC2)cc(OC)c1 | -30.06 ± 0.054 | -29.8 ± 15 | -39 ± 5.1 | -29.5 ± 4.3
7 | CN(C)CCC1(c2ccc(Cl)cc2)Cc2ccccc2C(=O)O1 (racemic) [(±)-AC 7954 hydrochloride] | -7.28 ± 3.2 | -50.3 ± 59 | -17.6 ± 10 | -18.9 ± 3
8 | COc1cc(N)c(Cl)cc1C(=O)OCCCN1CCCCC1 | -0.243 ± 1.8 | -1.69 ± 1.5 | -2.86 ± 2.5 | -7.89 ± 1.2
9 | CCCCCCN(CCCCCC)C(=O)Cc1c(-c2ccc(F)cc2)[nH]c2ccccc12 | -94.4 ± 74 | -119 ± 100 | -9.57 ± 1.5 | -29.4 ± 4.8
10 | O=C(NCCO[N+](=O)[O-])c1cccnc1 [Nicorandil] | -0.0121 ± 0.65 | -0.984 ± 0.96 | -0.345 ± 0.58 | -10.6 ± 4.9
11 | CC(C)c1ccc(C(=O)c2cccs2)c(SCCCCCCCCN(C)C)n1 | -53 ± 51 | -28.3 ± 23 | -18.3 ± 12 | -27.3 ± 16
12 | CN(C(=O)c1c(O)c2ccccc2n(C)c1=O)c1ccccc1 [Linomide] | -31.1 ± 41 | 2.41 ± 3 | 2.47 ± 3.5 | -154 ± 130
13 | CCN(CC)CCOc1ccc(Cc2ccccc2)cc1 [DPPE fumarate] | -47.3 ± 16 | -35.2 ± 6 | -45.8 ± 6.2 | -38 ± 0.45
14 | COC(=O)C(Cc1ccc(OCCn2c(=O)sc3cc(C(=O)c4ccccc4)ccc32)cc1)C(=O)OC | -51 ± 61 | -0.603 ± 1.6 | -0.0886 ± 0.24 | -12.5 ± 2.5
15 | COc1nccc(-c2c(-c3ccc(F)cc3)ncn2C2CCC(O)CC2)n1 (configuration not stated) | -6.52 ± 4.4 | -2.82 ± 4.4 | -16.5 ± 9.3 | -46.8 ± 27
16 | Cc1nc2c(OCc3ccccc3)cccn2c1CC#N | -39.8 ± 50 | -1.15 ± 3.1 | 0.524 ± 0.61 | -6.21 ± 1.7
17 | Nc1nc(-c2ccc(Cl)c(Cl)c2)c(-c2ccncc2)s1 [CGH 2466 dihydrochloride] | -13.1 ± 7 | -6.18 ± 1.2 | -6.21 ± 5.6 | -17.3 ± 12

A different layout for some results above:
Row	SMILES	robust z score of cell number (mIMCD3 [1]; siRNA: siRpgrip1l)	robust z score of cell number (mIMCD3 [1]; siRNA: siScr)	robust z score of cilia incidence (mIMCD3 [2])	robust z score of cilia incidence (mIMCD3 [3])
4	COc1cc(Br)c(S(=O)(=O)Nc2ccc(Cl)c(O[C@@H]3CCN(C)C3)c2)cc1OC	-17.4 ± 17	-8.7 ± 5	-14.5 ± 2.6	-14.8 ± 4.3
8	COc1cc(N)c(Cl)cc1C(=O)OCCCN1CCCCC1	-0.243 ± 1.8	-1.69 ± 1.5	-2.86 ± 2.5	-7.89 ± 1.2
13	CCN(CC)CCOc1ccc(Cc2ccccc2)cc1 [DPPE fumarate]	-47.3 ± 16	-35.2 ± 6	-45.8 ± 6.2	-38 ± 0.45

Following part

Row | SMILES | robust z score of cell number (mIMCD3 [1]; siRNA: siRpgrip1l) | robust z score of cell number (mIMCD3 [1]; siRNA: siScr) | robust z score of cilia incidence (mIMCD3 [2]) | robust z score of cilia incidence (mIMCD3 [3])
18 | CN1CCc2cccc3c2[C@H]1Cc1ccc(O)c(O)c1-3 [(R)-(-)-Apomorphine hydrochloride] | -51.3 ± 43 | -45.7 ± 0.71 | -59 ± 11 | -37.7 ± 4
19 | CNc1cc2c(Nc3cccc(Br)c3)ncnc2cn1 | -18.7 ± 4.5 | -95.9 ± 81 | -8.01 ± 2 | -19.6 ± 4.8
20 | CC[C@H](C)C(=O)O[C@H]1CCC=C2C=C[C@H](C)[C@H](CC[C@@H]3C[C@@H](O)CC(=O)O3)[C@H]21 [Mevastatin] | -126 ± 140 | -38.2 ± 11 | -37.9 ± 17 | -510 ± 320
21 | CN1CC(=O)N=C1NC(=O)Nc1cccc(Cl)c1 [Fenobam] | -5.23 ± 5.6 | -1.4 ± 1.4 | 1.66 ± 1.1 | -7.78 ± 5.5
22 | NS(=O)(=O)C#Cc1ccccc1 [Pifithrin->m] | -32.9 ± 10 | -144 ± 110 | -56.1 ± 24 | -52.3 ± 17
23 | CSc1nc(NC2CCCC2)c([N+](=O)[O-])c(NC2CCCC2)n1 | -19.4 ± 15 | -33.9 ± 23 | -1.57 ± 4.7 | -19.1 ± 22
24 | O=C(O)c1ccccc1Nc1cccc(OCc2ccc3ccccc3n2)c1 [SR 2640 hydrochloride] | -44.7 ± 41 | -44.7 ± 29 | -120 ± 81 | -91.6 ± 70
25 | O=C1NC(=O)c2c1c(-c1ccccc1)cc1[nH]c3ccc(O)cc3c21 | -11.4 ± 9.2 | 0.539 ± 0.5 | 0.0913 ± 1.2 | -4.42 ± 4.6
26 | C=CC(=O)c1ccc2ccccc2c1 | -24.4 ± 25 | -5.04 ± 0.19 | 5.15 ± 3.6 | -6.74 ± 1.8
27 | O=C(O)c1c(Sc2ccccc2)c2cc(Cl)ccc2n1Cc1ccc(Cl)cc1 | -1.82 ± 2.1 | -0.205 ± 2 | -0.83 ± 0.37 | -15.7 ± 9.2
28 | CC(C)(Sc1ccc(CCN(CCCCC2CCCCC2)C(=O)NC2CCCCC2)cc1)C(=O)O | -44.7 ± 41 | -44.4 ± 30 | -120 ± 66 | -119 ± 110
29 | CC(/C=C/c1cccc(Oc2ccc(F)cc2)c1)N(O)C(N)=O (configuration not stated) | -151 ± 110 | -18.1 ± 5 | -2.91 ± 8.7 | -16.1 ± 5.7
30 | NCCNC(=O)c1ccc(Cl)cn1 [Lazabemide hydrochloride] | 0.768 ± 0.37 | -1.57 ± 1.6 | 1.36 ± 1.6 | -8.41 ± 6.3
31 | Cc1c(C2CCN(CCc3ccccc3)CC2)noc1-c1ccc(Cl)cc1 [L-741,742 hydrochloride] | -30.8 ± 0.32 | -29.8 ± 15 | -46.4 ± 2.7 | -28 ± 5
32 | O=C(Nc1cc(C(F)(F)F)cc(C(F)(F)F)c1)c1cc(Cl)ccc1O | -32.2 ± 10 | -142 ± 110 | -67.1 ± 14 | -56 ± 7.3
33 | COc1ccc([C@H]2CNC(=O)C2)cc1OC1CCCC1 [(S)-(+)-Rolipram] | -36.7 ± 36 | 1.23 ± 1.6 | 1.26 ± 0.37 | -10.5 ± 4.2
